The record followed here is US9029080B2, “Screening assay for insecticides” (priority 2008, dated 2015).

The target in this assay is T1, octopamine receptor (OctR, CG6919 dmOa2) (Drosophila melanogaster, UniProt Q9VCZ3).
T1 construct: expressed in transfected cells; host or cells: CHO stably expressing G-alpha-16
In words: OctR clone 55 FLIPR Fluo-4 calcium assay. The format is cell-based. As for the experimental part:
FIG. 62. Cells were plated at 10K/well in 384 well plates and allowed to incubate overnight at […]. The cells were assayed 18-24 hours after seeding. Media was removed and cells were dye loaded for 60 minutes with 2 μM Fluo-4. After 1 hour, dye was removed and 20 μl of buffer added to the plate and placed into FLIPR. The 1st addition was antagonist dose response curves and the 2nd addition was agonist dose response curves. Antagonists were challenged with 100 nM Octopamine. In addition, these compounds were tested in the parental cell line CHO-Galpha16.
Cells were plated at 10,000 cells/well in 50 μl into 384-well black TC plates and allowed to incubate overnight at 37° C./5% CO2. The cells were assayed 18-24 hours after seeding. Culture medium was removed by flicking and cells were dye loaded for 60 minutes with 20 μl of 2 μM Fluo-4 in assay buffer plus probenecid at 25° C. After one hour dye was removed by flicking and 20 μL of assay buffer was added, wait 5 min prior to placing into the FLIPR and run using a two-addition protocol. The first addition (20 ul, 2×) was 0.5% DMSO final in assay buffer. The second addition (20 ul, 3×) was either assay buffer or 100 nM octopamine final.

As for `CN1CCN2c3ccccc3Cc3ccccc3C2C1` (stereo not shown) [mianserin], the IC50 was 267 nM.
